{"source": "PubChem BioAssay AID504834", "about": "(National Center for Advancing Translational Sciences (NCATS), 2011)", "note": "Among all 320,000 compounds or so, about 22,000 (6.9%) were called active. Inconclusive results, whose numbers are uncertain, are shown with a selection of clear calls. The call rests on the fitted dose curve; in most records, active means well fitted inhibition curve with a large enough effect; inconclusive means small, poorly fitted or top-dose-only effect, or another doubt; inactive means no such curve, though single readings can be large or run the other way. Potencies beside an inconclusive call are fits to weak or partial responses and may not hold up. On the % scale 0 is the no-effect control and ±100 the full control effect; potency means the concentration at half of the fitted maximal effect."}
{"assay": "Primary qHTS for delayed death inhibitors of the malarial parasite plastid, 96 hour incubation", "details": "P. falciparum luciferase reporter growth; series mostly up to 28.7 µM; activity change, negative = inhibition: at the top concentration", "how_it_was_run": "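Luminescence readout: decreased luciferase signal marks inhibited growth of reporter-expressing P. falciparum in infected red cells (2% hematocrit, 0.05% parasitemia final), exposed to compound two generations (96 h, 37 C, 5% CO2).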"}
{"compound": "COC(=O)c1cc2occc2n1Cc1cccc(C)c1", "Potency": "inconclusive: 11.7 µM [inhibitor, single point]"}
{"compound": "COc1ccccc1CN1CCCCC1C(=O)O", "note": "(configuration not stated)", "activity change, negative = inhibition": "inactive: 11.6%"}
{"compound": "CCCn1c(SCC(=O)N2CCN(c3ccccc3)CC2)nc2ccccc2c1=O", "Potency": "inconclusive: 10.4 µM [inhibitor, single point]"}
{"compound": "COc1cccc(/C=C2/SC(=O)N(CC(=O)N3CCc4ccccc4C3)C2=O)c1OCC(=O)O", "activity change, negative = inhibition": "inactive: -22.3%"}
{"compound": "COc1ccc(NC(=O)N2CCCC2C(=O)Nc2cccc(C)c2C)cc1", "note": "(configuration not stated)", "Potency": "inconclusive: 18.5 µM [inhibitor, single point]"}
{"compound": "O=C(NC(C(=O)N/N=C/c1ccccn1)c1n[nH]c(=O)c2ccccc12)c1ccccc1", "note": "(configuration not stated)", "Potency": "inconclusive: 5.86 µM [inhibitor, partial curve]"}
{"compound": "N[C@@H](Cc1ccccc1)C(=O)N1CCC(C(=O)NCC(=O)NCC(=O)O)CC1", "activity change, negative = inhibition": "inactive: 7.68%"}
{"compound": "CCOC(=O)C(=O)Nc1cc(C)on1", "activity change, negative = inhibition": "inactive: -2.7%"}
{"compound": "C/C(=N\\Nc1nc(C)cc(-c2ccccc2)n1)c1ccc(C)o1", "Potency": "active: 1.04 µM"}
{"compound": "CC1CCC(NC(=O)CSc2nncs2)CC1", "note": "(configuration not stated)", "activity change, negative = inhibition": "inactive: 37.8%"}
{"compound": "Cc1ccc(S(=O)(=O)N2CCN(CCOc3c(Cl)cccc3Cl)CC2)cc1C", "activity change, negative = inhibition": "inactive: -6.36%"}
{"compound": "Nc1cc(N)nc(SCC(=O)Nc2cccc(S(=O)(=O)N3CCCCC3)c2)n1", "Potency": "inconclusive: 5.86 µM [inhibitor, partial curve, poor fit]"}
{"compound": "CCCCCCCCCCn1ccc(=N)cc1", "Potency": "inconclusive: 0.294 µM [inhibitor, full curve, poor fit]"}
{"compound": "CC(C)(C)OC(=O)N1CCN(c2ccc(NC(=O)c3ccco3)cc2)CC1", "activity change, negative = inhibition": "inactive: 1.89%"}
{"compound": "Cc1ccc(CN2C(=O)C(C)Nc3ncnc(N4CCN(c5ccccn5)CC4)c32)cc1", "note": "(configuration not stated)", "Potency": "active: 11.7 µM"}
{"compound": "CCCN(CC(=O)Nc1ccccc1C)C(=O)c1ccc(-c2ccc([N+](=O)[O-])cc2)o1", "Potency": "inconclusive: 0.104 µM [inhibitor, full curve, poor fit]"}
{"compound": "CC(C)(C)c1cc(C(C)(C)C)cc(S(=O)(=O)CCc2ccccn2)c1", "Potency": "inconclusive: 9.28 µM [inhibitor, partial curve, poor fit]"}
{"compound": "CCOC(=O)Nc1ccc(S(=O)(=O)NCc2ccccc2)cc1", "activity change, negative = inhibition": "inactive: 25.9%"}
{"compound": "C/C(=N/NC(=O)c1ccco1)c1cccnc1", "Potency": "inconclusive: 11.7 µM [inhibitor, single point]"}
{"compound": "O=C(CN1CCc2ccccc2C1)Nc1cccc(S(=O)(=O)N2CCCC2)c1", "Potency": "inconclusive: 11.7 µM [inhibitor, single point]"}
{"compound": "NC(=O)c1ccc(C23CC4CC(CC(C4)C2)C3)o1", "Potency": "inconclusive: 18.5 µM [inhibitor, single point]"}
{"compound": "Cc1cc(C(=O)CSc2nnc(-c3ccco3)o2)c(C)n1CC1COc2ccccc2O1", "note": "(configuration not stated)", "Potency": "active: 4.65 µM"}
{"compound": "CN1CCN(C(=O)c2ccc3c(=O)n(Cc4ccco4)c(=S)[nH]c3c2)CC1", "Potency": "inconclusive: 13.1 µM [inhibitor, single point]"}
{"compound": "COc1ccc([N+](=O)[O-])cc1NC(=O)CCS(=O)(=O)c1ccc(Br)cc1", "activity change, negative = inhibition": "inactive: 58.9%"}
{"compound": "CCc1nc(N=C(N)N)nc2ccccc12", "activity change, negative = inhibition": "inactive: 7.39%"}
{"compound": "CC(C)Cc1nc(C#N)c(N2CCC(C(N)=O)CC2)o1", "Potency": "inconclusive: 18.5 µM [inhibitor, single point]"}
{"compound": "Clc1ccc(CN2CCN(c3ncccn3)CC2)cc1Cl", "activity change, negative = inhibition": "inactive: 3.32%"}
{"compound": "Cc1ccc(OP(=O)(Nc2c(C)n(C)n(-c3ccccc3)c2=O)Oc2ccc(C)cc2)cc1", "activity change, negative = inhibition": "inactive: 4.38%"}
{"compound": "O=C(Nc1ccccc1)/C(=C\\c1cccs1)NC(=O)c1ccccc1", "Potency": "active: 1.47 µM"}
{"compound": "COc1ccc(S(=O)(=O)N2CCC(C(=O)N[C@@H](C)C(=O)NCc3ccc(F)cc3)CC2)cc1", "Potency": "inconclusive: 18.5 µM [inhibitor, single point]"}
{"compound": "C=CCCOc1ccccc1C(N)=O", "Potency": "inconclusive: 13.1 µM [inhibitor, single point]"}
{"compound": "CCOc1ccccc1NC(=O)c1oc2ccccc2c1NC(=O)C1CCCO1", "note": "(configuration not stated)", "activity change, negative = inhibition": "inactive: 60.9%"}
{"compound": "CCc1nc2ccc(N3CCN(C)CC3)cc2nc1CC", "activity change, negative = inhibition": "inactive: 91.5%"}
{"compound": "O=S(=O)(NCc1cccs1)c1ccc(Br)s1", "activity change, negative = inhibition": "inactive: 21.1%"}
{"compound": "CC(OC(=O)c1ccc2ccccc2c1)C(=O)N(C)Cc1ccccc1", "note": "(configuration not stated)", "activity change, negative = inhibition": "inactive: 13.4%"}
{"compound": "Cn1c2ccccc2c2nnc(SCc3nnc(-c4ccccc4)o3)nc21", "Potency": "active: 4.15 µM"}
{"compound": "Oc1ccc2c3c1O[C@H]1[C@@H](O)CC[C@@]4(O)[C@@H](C2)N(CC2CCC2)CC[C@]314", "Potency": "inactive"}
{"compound": "O=C(COc1ccccc1)NC1C(=O)N2C(C(=O)O)=C(Cl)CSC12", "note": "(configuration not stated)", "Potency": "inconclusive: 18.5 µM [inhibitor, single point]"}
{"compound": "Cc1ccc2nc(NC(=O)C3CCN(c4ncnc5sc(C)c(C)c45)CC3)sc2c1", "Potency": "inconclusive: 10.4 µM [inhibitor, single point]"}
{"compound": "O=C(COC(=O)c1n[nH]c2ccccc12)Nc1ccc(S(=O)(=O)N2CCCC2)cc1", "activity change, negative = inhibition": "inactive: 156% [at 5.75 µM]"}
{"compound": "CC(=O)Nc1ccc(Cl)cc1C1COC(=O)C1=N", "note": "(configuration not stated)", "activity change, negative = inhibition": "inactive: 4.72%"}
{"compound": "CCc1nc2ccc(C)cc2c(C(=O)NC2CCCCC2C)c1C", "note": "(configuration not stated)", "Potency": "inconclusive: 0.104 µM [inhibitor, full curve, poor fit]"}
{"compound": "CCN(CC)c1ccc(/C=C(/C#N)C(=O)NC(C)C)o1", "Potency": "inconclusive: 18.5 µM [inhibitor, single point]"}
{"compound": "O=C(/C=C/c1ccc2c(c1)OCO2)c1ccc[nH]1", "activity change, negative = inhibition": "inactive: 276%"}
{"compound": "CCONC(=NC)c1nonc1N", "activity change, negative = inhibition": "inactive: 9.43%"}
{"compound": "CCOc1ccc(S(=O)(=O)NCCCN2CCOCC2)c2ccccc12", "activity change, negative = inhibition": "inactive: 38.1%"}
{"compound": "CC(=O)Nc1ccc(S(=O)(=O)N2CCC(C(=O)NCCC(=O)Nc3nccs3)CC2)cc1", "Potency": "inconclusive: 18.5 µM [inhibitor, single point]"}
{"compound": "CCN(CC)S(=O)(=O)c1ccc2c(c1)nc(SCC(N)=O)n2-c1ccc(OC)cc1", "Potency": "inconclusive: 8.28 µM [inhibitor, partial curve, poor fit]"}
{"compound": "COc1cccc(C(=O)NCCCn2ccnc2)c1", "activity change, negative = inhibition": "inactive: 23.9%"}
{"compound": "Cc1cc(SC(C)C(=O)Nc2ncc(Cl)cc2Cl)nc2ccccc12", "note": "(configuration not stated)", "activity change, negative = inhibition": "inactive: 10.8%"}
{"compound": "COc1ccc(CNC(=O)c2cncc(Br)c2)cc1", "activity change, negative = inhibition": "inactive: 19.3%"}
{"compound": "Cc1nnc(SCC2=C(C(=O)O)N3C(=O)C(NC(=O)Cc4ccccc4)C3SC2)s1", "note": "(configuration not stated)", "activity change, negative = inhibition": "inactive: -14%"}
